Measured values as given in PubChem BioAssay AID2029 (NMMLSC, 2009).
Hit rate of the full screen: of about 320,000 compounds, about 210 (0.066%) were called active. Only results without a clear call are listed here; the source files them as inconclusive.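 The calls were made as follows: active = GFP response relative to DMSO above a set limit, near the screen mean plus 3 SD (cut at about 150% in these data); inconclusive = Fewer than 70 cells measured for a yeast strain; inactive = the rest.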 Some tests of the compounds listed are not included; inactive here does not mean inactive elsewhere.

Assay: TOR pathway RTG branch CIT2 reporter changes – S. cerevisiae, GFP fusion, multiplex flow cytometry, MLPCN library, primary screen (AID 2029)
Settings: S. cerevisiae CIT2-GFP strain, 3 h, at 10 µM, 100 means same as DMSO wells

Compound | outcome
Cc1cc(C(=O)NCC2(N3CCCCC3)CCCCC2)ccc1[N+](=O)[O-] | inconclusive
